Assay results published in paper PMC6891762, “Novel Isoxazolidine and γ-Lactam Analogues of Homonucleosides” (Molecules, 2019).

Test system: Capan-1 (pancreatic adenocarcinoma) cells
Assay: Cytostatic activity, Capan-1
Assay type: cell-based
Conditions: concentration causing 50% decrease in cell proliferation
Experimental: The 50% cytostatic inhibitory concentration (IC50) causing a 50% decrease in cell proliferation was determined for all isolated isoxazolidines 14 and γ-lactams 15 toward nine cancerous cell lines (Capan-1 (pancreatic adenocarcinoma), Hap1 (chronic myeloid leukemia), HCT-116 (colorectal carcinoma), NCI-H460 (lung carcinoma), DND-41 (acute lymphoblastic leukemia), HL-60 (acute myeloid leukemia), K-562 (chronic myeloid leukemia), MM.1S (multiple myeloma) and Z-138 (non-Hodgkin lymphoma)) and normal retina (non-cancerous) cells (hTERT RPE-1). Docetaxel, etoposide and stauroporine were used as the reference compounds.
All assays were performed in 96-well microtiter plates. To each well was added (5−7.5) × 10^4 tumor cells and a given amount of the test compound. The cells were allowed to proliferate at 37 °C in a humidified, CO2-controlled atmosphere. At the end of the incubation period, the cells were counted in a Coulter counter. The IC50 (50% inhibitory concentration) was defined as the concentration of the compound that inhibited cell proliferation by 50%.

`CN[C@@H]1C[C@H]2O[C@@](C)([C@@H]1OC)n1c3ccccc3c3c4c(c5c6ccccc6n2c5c31)C(=O)NC4` [Stauroporine, reference compound] was tested, and the IC50 was 0.66 µM.
